Measurements as given in PubChem BioAssay AID493014 (National Center for Advancing Translational Sciences (NCATS), 2011).
In all, about 340,000 compounds went through this assay and about 170 (0.05%) were called active. Inconclusive results, whose numbers are uncertain, are shown with a selection of clear calls. Calls follow the shape of the dose curve; as a rule, active = well fitted inhibition curve with a large enough effect in the signal ratio, with a control signal flat (not every such curve was filed as active); inconclusive = small, poorly fitted or top-dose-only effect, or effect the other way, or a change in a side signal; inactive = flat fitted curve, though single readings scatter; the % refers to the signal ratio. A potency beside an inconclusive call is a rough fit, not a confirmed value.

Experiment: qHTS Assay to Find Inhibitors of Chronic Active B-Cell Receptor Signaling;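 as to activity change, negative = inhibition: plate controls were basal doxycycline-induced cells for no effect and cells given 10 µM MG132 for full effect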
Conditions: ABC-DLBCL IkBa-CBG/CBR reporter, luminescence ratio (green luciferase fused to IkBa over red control in TMD8 lymphoma cells), 4 h; activity change, negative = inhibition: at 46.1 µM (top of the series)
Method in brief: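 TMD8 human ABC-DLBCL cells with doxycycline-inducible IκBα–green luciferase fusion and unfused red luciferase, in 0.5% FBS medium; compounds up to 46 uM, 4 h at 37C. Green/red luminescence ratio, filter-overlap corrected, fitted to concentration-response curves.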
Potency is read from the fitted curve at half-maximal effect.

| Structure (SMILES) | activity change, negative = inhibition | Potency |
| --- | --- | --- |
| COc1ccc(-c2cc(=O)oc3cc(OCC(=O)NCc4ccccn4)ccc23)cc1 | inactive: -1.45% |  |
| Cc1cc(OCC(O)CN2CCN(c3ccccn3)CC2)cc(C)c1Cl (centres undefined) |  | inconclusive: 20 µM [falling, partial curve, poor fit] |
| O=C1C(Cl)=C(Nc2ccc(F)cc2)C(=O)N1CCc1ccccc1 | inconclusive: -0.864% |  |
| Cc1ccccc1N(CC(=O)N1CCOCC1)S(C)(=O)=O |  | inconclusive: 2.51 µM [rising, full curve, poor fit] |
| O=C(NN=C1CCCCCC1)c1ccc2c(c1)OCO2 |  | inconclusive: 15.8 µM [falling, partial curve] |
| O=C1CC(N2CCOCC2)C(=O)N1Cc1ccc(N2CCCC2=O)cc1 (centres undefined) | inactive: 1.01% |  |
| O=C(c1[nH]ncc1-c1ccc(Cl)cc1)C1CO1 (centres undefined) |  | inconclusive: 14.1 µM [rising, partial curve, poor fit] |
| Cc1ccccc1-n1nnnc1SCC(C)C | inconclusive: -0.741% |  |
| Cc1ccc(C(=O)Oc2oc(-c3ccccc3)nc2C=Nc2ccc(N(C)C)cc2)cc1 |  | inconclusive: 6.51 µM [falling, partial curve] |
| CN=c1scc(-c2ccc(F)cc2)n1/N=C/c1ccc(O)c(O)c1 |  | inconclusive: 35.5 µM [rising, single point] |
| CO/N=C/NC(=O)Cc1cn(-c2ncc(C(F)(F)F)cc2Cl)c2ccccc12 | inconclusive: -0.46% |  |
| Cc1cccc(N(C(=O)CS(=O)CC(=O)Nc2ccc3c(c2)OCO3)C(C)C(=O)NC2CCCC2)c1C (centres undefined) | inconclusive: 1.45% |  |
| CCCOC(=O)c1ccc(OCC(O)Cn2c(C)nc3ccccc32)cc1 (centres undefined) | inactive: 0.999% |  |
| C=CC[C@H](CC(=O)N(CCO)Cc1ccccc1)C(=O)N[C@H](C)COC(=O)[C@@H](CC=C)Cc1ccc(F)cc1 | inconclusive: -2.31% |  |
| COc1cccc(/C=N/Nc2ncnc3scc(-c4ccccc4)c23)c1OC |  | inconclusive: 2.06 µM [rising, partial curve, poor fit] |
| CC(C)CCNC(=O)CN(Cc1ccc2c(c1)OCO2)C(=O)CCC(=O)Nc1ccccn1 | inconclusive: 7.05% |  |
| O=C(Nc1cccc(S(=O)(=O)N2CCOCC2)c1)c1ccc2c(=O)n3c(nc2c1)CCCCC3 | inconclusive: -17.9% |  |
| Cc1ccc(Cn2nnc3c(=O)n(CC(=O)NCc4ccco4)cnc32)cc1 | inconclusive: -1.6% |  |
| Cc1cc(C)n2nc3nc4c(cc3c2n1)CCCC4 |  | inconclusive: 11.2 µM [falling, partial curve, poor fit] |
| COc1cccc(/C=C2\CCC(C3CCCC3)C2=O)c1OC (centres undefined) |  | inconclusive: 15.8 µM [falling, partial curve, poor fit] |
| CCOC(=O)C1=C(COC(=O)/C=C/c2ccc(O)c(OC)c2)NC(=O)NC1C (centres undefined) | inconclusive: -17% |  |
| Cc1cc(C(=O)NC2CC(C)(C)Cc3c2cnn3-c2ccccc2C)c(C)o1 (centres undefined) | inconclusive: 0.147% |  |
| COc1ccc(C(=O)c2ccccc2)c(O)c1 | inconclusive: 17.2% |  |
| O=C(Nc1ccc2c(c1)Cc1ccccc1-2)c1cccnc1 |  | inconclusive: 15.8 µM [falling, partial curve] |
| COc1ccc(-c2nc(Cn3c(SCc4ccc(C)cc4)nc4ccncc43)c(C)o2)cc1OC |  | inconclusive: 23.1 µM [falling, partial curve, poor fit] |

Rewritten with each value named: 2 of the compounds above.
COc1ccc(-c2cc(=O)oc3cc(OCC(=O)NCc4ccccn4)ccc23)cc1
  activity change, negative = inhibition: inactive: -1.45%
Cc1cc(C(=O)NC2CC(C)(C)Cc3c2cnn3-c2ccccc2C)c(C)o1 (centres undefined)
  activity change, negative = inhibition: inconclusive: 0.147%

Carrying on.

| Structure (SMILES) | activity change, negative = inhibition | Potency |
| --- | --- | --- |
| COc1ccc(/C(C)=N/NC(=O)c2ccc(NS(=O)(=O)c3cccs3)cc2)cc1 |  | inconclusive: 35.5 µM [rising, single point] |
| O=C(NCCc1ccccc1)C(=O)NCC1(c2ccccc2)CCCC1 | inactive: 7.73% |  |
| Cc1ccc(CNC(=O)c2ccc(Cl)c(S(N)(=O)=O)c2)n1C | inconclusive: -1.05% |  |
| O=C(CN1C(=O)NC2(CCCCC2)C1=O)Nc1ccccc1N1CCCC1 | inconclusive: 4.05% |  |
| CN(C)c1nc(-c2ccc([N+](=O)[O-])cc2)cs1 | inconclusive: 28.9% |  |
| CSc1sc(C(=O)NCC2CC2)cc1S(=O)(=O)C(C)C | inconclusive: -7.63% |  |
| COc1ccc(Cl)cc1NC(=O)CSc1sc2c(O)cc(=O)[nH]c2c1C#N | inconclusive: 2.84% |  |
| CCOC(=O)CSc1nc2sc3c(c2c(=O)[nH]1)CC(C)(C)OC3 | inconclusive: 9.76% |  |
| COc1ccc(NCc2nnc(-c3ccccc3)o2)cc1 | inconclusive: 0.717% |  |
| Cc1cccc(NC(=S)NN(Cc2ccccc2)c2ccccc2)c1C | inconclusive: 9.96% |  |
| CCN1CCN(c2nc(C)nc3c2sc(=S)n3C)CC1 | inactive: 4.8% |  |
| CN(CC(=O)Nc1cccc(F)c1)C(=O)CSc1ccccc1F | inconclusive: 3.41% |  |
| CC(C)OC(=O)CN1CCN(C2c3ccccc3-c3ccccc32)CC1 |  | inconclusive: 5.62 µM [falling, partial curve, poor fit] |
| N#CC1=C(N)Oc2cc(O)ccc2C1C1CCCCC1 (centres undefined) | inconclusive: -25% |  |
| Cc1sc2ncnc(N3CCN(CCOc4ccc(Cl)cc4)CC3)c2c1C | inactive: -9.74% |  |
| CCN(CC)CCn1c(=S)[nH]c2cc(C(=O)NCc3ccccc3Cl)ccc2c1=O | inconclusive: -11% |  |
| COc1ccc(C(=O)NC2CC2)cc1OC1CCN(Cc2ccc(F)cc2)CC1 | inactive: -6.43% |  |
| CC1(C)CCC[C@]2(C)[C@H]3CC(=O)O[C@]3(C)CC[C@@H]12 | inconclusive: 6.07% |  |
| CC(=O)c1sc(Nc2nc3cc4c(cc3s2)OCO4)nc1C | inconclusive: 10.8% |  |
| CCCNC(=O)c1cc2cc([N+](=O)[O-])ccc2s1 | inconclusive: 7.06% |  |
| CCOC(=O)c1ccc(OS(=O)(=O)c2ccccc2)c(OC)c1 | inconclusive: 8.32% |  |
| CCn1c(SCC(=O)Nc2ccccc2C)nnc1-c1ccccc1O |  | inconclusive: 4.11 µM [falling, partial curve, poor fit] |
| COc1cccc(CNC(=O)CN2c3cccc4cccc(c34)S2(=O)=O)c1 |  | inconclusive: 4.61 µM [falling, full curve] |
| O=C(CCc1nc2ccccc2s1)Nc1ccccc1 |  | inconclusive: 29.1 µM [falling, single point] |
